According to patent publication US8383887B2, “Methods of using plants containing the gdhA gene” (Southern Illinois University Carbondale, priority 2009, dated 2013):
Values joined by “and” are separate entries in the source; they are usually repeats but may differ in a detail not shown here. Identical values can stand only once.

tested on: gdhA+ Nicotiana tabacum plants; experiment: Metabolites with altered abundance in leaf and root extracts of gdhA+ vs gdhA− Nicotiana tabacum; details: fatty acids (Table 6Ii); tissue not given

In order of falling “Percent Change” value:
1. CCCCCCC(O)CCCCCCCCCCC(=O)O (racemic) [DL-12-Hydroxystearic acid]  196%
2. O=C(O)CCCCCCCCCC(=O)O [Undecanedioic acid]  14%
3. CCCCCCCCCC(=O)O [Capric acid]  13%
4. CCCCCCCCCCCCCCC(=O)O [Pentadecanoic Acid]  6%
5. CCCCCCCCCCCCCCCC(=O)O [Palmitic acid]  4%

same assay, conditions: leaf extracts, Nicotiana tabacum; % changes are ±2%

In order of rising “Percent Change in abundance in gdhA+ plants compared to gdhA− plants” value (shortened to “Percent Change in abundance”):
1. CCCCCCCCCCCCCCC(=O)O [Pentadecanoic Acid]  23%
2. CC(=O)CC(=O)OC1CC(C)CCC1C(C)C (stereo not drawn) [Menthyl acetoacetate]  23%
3. CCCCCCCCCCCCCCCC(=O)O [Palmitic acid]  30%
4. CCCCCCCCCCCCCCCCCCCCCCCC(=O)OCC [Ethyl tetracosanoate]  30%
5. NCCCCNC(=O)/C=C/c1ccc(O)c(O)c1 [N-caffeoylputrescine]  196%
6. O=c1cc(O)c2ccccc2o1 [4-hydroxycoumarin]  270%
7. 3-aryl-5-oxoproline ethyl ester  303%

same assay, conditions: leaf extracts; gdhA+ plants compared to gdhA− plants; % changes are ±2%

In the case of CC(=O)CC(=O)OC1CC(C)CCC1C(C)C (stereo not drawn) [Menthyl acetoacetate], the “Percent Change” value is reported as 23%.

same assay, conditions: leaf extracts; metabolite abundance, gdhA+ vs gdhA− Nicotiana tabacum

In order of falling “Percent Change” value:
1. 3-aryl-5-oxoproline ethyl ester  303%
2. N[C@@H](Cc1ccccc1)C(=O)O [Phenylalanine]  244%
3. N[C@@H](Cc1c[nH]cn1)C(=O)O [Histidine]  156%

same assay, conditions: root extracts, Nicotiana tabacum; % changes are ±2%

In order of falling “Percent Change in abundance” value:
1. O[C@H]1[C@H]2[C@H](O)CCCN2C[C@H]1O [Swainsonine]  500%
2. O=C(O)CC(O)C(=O)O (racemic) [DL-malic acid]  270%
3. CN1CCC[C@H]1c1ccc(O)nc1 [(S)-6-Hydroxynicotine]  263%
4. CCCCC[C@@H]1OC1=C/C=C\CCCCCCCC(=O)O [(9Z)-(13S)-12,13-Epoxyoctadeca-9,11-dienoate]  192%
5. Cc1ccccc1C=CC(=O)O [2-methyl cinnamic acid]  59%
6. CCOc1ccc2c(C)cc(=O)oc2c1 [7-Ethoxy-4-methylcoumarin]  36%
7. CCCCC/C=C\C/C=C\CCCCCCCC(=O)OCC [Ethyl linoleate]  31%
8. S=C=NCC1CCC(CN=C=S)CC1 (stereo not drawn) [Isothiocyanic acid 1,4-cyclohexylene-dimethylene ester]  31%
9. Cc1cc(C(C)(C)C)c2oc(=O)cc(C)c2c1 [4,6-Dimethyl-8-tert-butylcoumarin]  27%
10. O=C1OC(=O)c2ccccc21 [Phthalic anhydride]  24%
11. CCOC(=O)CCCCCCCCCCCCC(=O)OCC [Diethyl tetradecanedioate]  19%
12. C=COC(=O)CCCCCCCCCCCCCCCCC [Octadecanoic acid, ethenyl ester]  17%
13. O=C(O)CCCCCCCCC(=O)O [Sebacic Acid]  16%
14. O=C(O)CCCCCCCCCC(=O)O [Undecanedioic acid]  14%
15. CCCCCCCCCC(=O)O [Capric acid]  13%
16. CC(=O)CC(=O)OC1CC(C)CCC1C(C)C (stereo not drawn) [Menthyl acetoacetate]  13%
17. CCCCCCCCCCCCCCCCCCCCCCCC(=O)OCC [Ethyl tetracosanoate]  8%
18. CCCCCCCCCCCCCCC(=O)O [Pentadecanoic Acid]  6%
19. CCCCCCCCCCCCCCCC(=O)O [Palmitic acid]  4%

With CCOC(=O)[C@H](Cc1ccc(O)cc1)NC(=O)c1ccccc1 [N-Benzoyl-L-tyrosine ethylester] the “Percent Change in abundance” value was 50% and 52%.
NCCCCNC(=O)/C=C/c1ccc(O)c(O)c1 [N-caffeoylputrescine] was tested, and the “Percent Change in abundance” value was 19% and 26% and 25%.

same assay, conditions: root extracts; gdhA+ plants compared to gdhA− plants; % changes are ±2%

In order of rising “Percent Change” value:
1. CCCCCCCCCCCCCCCC(N)=O [Hexadecanamide]  12%
2. CC(=O)CC(=O)OC1CC(C)CCC1C(C)C (stereo not drawn) [Menthyl acetoacetate]  13%
3. O=C(O)CCCCCCCCC(=O)O [Sebacic Acid]  16%
4. O=C1OC(=O)c2ccccc21 [Phthalic anhydride]  24%
5. S=C=NCC1CCC(CN=C=S)CC1 (stereo not drawn) [Isothiocyanic acid 1,4-cyclohexylene-dimethylene ester]  31%

same assay, conditions: root extracts; metabolite abundance, gdhA+ vs gdhA− Nicotiana tabacum

In order of rising “Percent Change” value:
1. N[C@@H](Cc1ccccc1)C(=O)O [Phenylalanine]  233%
2. N[C@@H](Cc1c[nH]cn1)C(=O)O [Histidine]  833%

CCOC(=O)[C@H](Cc1ccc(O)cc1)NC(=O)c1ccccc1 [N-Benzoyl-L-tyrosine ethylester] was tested, and the “Percent Change” value was 50% and 52%.
